Some entries share one result that the patent states for a list of compounds.
Test system: HeLa cells
Test: 24 hour cytotoxicity assay (Guava ViaCount)
Type: cell-based
Method: FIG. 11. 24 hour cytotoxicity assay using HeLa cells at increasing Magnevist and GO concentrations. […] The maximum GO dose required for cellular delivery enhancement is 20 μg/mL, or an order of magnitude below the highest test dose. The 150 nm GO was used for the study.
FIGS. 12A-B. Cytotoxicity of Magnevist. A) Viability of HeLa cells at increasing Magnevist concentration as measured by the Guava ViaCount Assay. Analysis includes floating cells at the end of the 24-hr incubation period. The fitted IC50 was 80 mM. […] Fitting was performed using GraphPad Prism software. All incubations were performed for 24 hours. Error bars show SD.
Cell counting was conducted using a Guava EasyCyte Mini Personal Cell Analyzer (EMD Millipore, Billerica, Mass.). After cell harvesting, an aliquot (50 μL) of the cell suspensions was mixed with Guava ViaCount reagent (150 μL) and allowed to stain at room temperature for at least 5 minutes. The dilution factor of 4 was determined based upon optimum machine performance (20-150 cells/μL). After vortexing for 10 sec, stained cells were counted using a Guava EasyCyte Mini Personal Cell Analyzer (PCA) using the ViaCount software module. For each sample, 1000 events were acquired. Gating of live/dead and cell/debris classifications were performed manually by the operator.

With “Diethylenetriaminepentaacetic acid gadolinium(III) dihydrogen salt hydrate [Molecule 11]” the Cell viability (70 mM Magnevist and 250 μg/mL GO) was “below 60%” and the Cell viability (GO up to 250 μg/mL and Magnevist up to 35 mM) was “above 90%”.
